Experimental data: PubChem BioAssay AID1259307 (Sanger Institute, 2017)

Screen: 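Identify kinases needed for SW620 growth or enhancing BYL719, cetuximab or trametinib effects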 (primary screen)
System: SW620 colorectal cancer cells
Knock-down reagent: siRNA pool against human genes
Challenge: anchor drugs BYL719 at 1 µM, cetuximab at 5 µg/ml or trametinib at 10 nM, each beside a DMSO vehicle arm
Read-out: 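Cell viability in each well relative to non-targeting controls, averaged over replicates and turned into a robust z-score; synergy with BYL719 (1 µM), cetuximab (5 µg/ml), trametinib (10 nM) versus DMSO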
Scale: viability robust z-score, no drug and viability vs control, no drug: higher = more viable cells; synergy score with BYL719 and synergy score with cetuximab and synergy score with trametinib: higher = stronger synthetic lethality with the drug
Rule for the call: 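a knock-down counts as lethal alone if its drug-free robust viability z-score is lower than -3, regardless of synergy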
Calls: active = essential (lethal alone); inactive = no change alone
In all, the deposit lists 794 reagents; below is an unselected part. 15 of all reagents (1.9%) count as active. 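Calls reflect lethality without any drug; synergy scores did not enter the calls.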 Entries without a mark were called inactive. No viability above 1 is reported: the scale is capped. No sequences are given here. The record does not give: the amount of reagent, the time to read-out.

The opening 5 entries as a preview:
Target gene | viability robust z-score, no drug | viability vs control, no drug | synergy score with BYL719 | synergy score with cetuximab | synergy score with trametinib
BRSK2 (BR serine/threonine kinase 2) | 0.314 | 0.961 | 0.0201 | -0.0283 | 0.0745
BMAL1 (basic helix-loop-helix ARNT like 1) | -0.832 | 0.855 | -0.00818 | -0.052 | 0.0121
PIM2 (Pim-2 proto-oncogene, serine/threonine kinase) | 0.736 | 1 | -0.0486 | 0 | -0.0154
UCK2 (uridine-cytidine kinase 2) | 0.736 | 1 | -0.0337 | 0 | -0.0273
KRAS (KRas proto-oncogene, GTPase) | -3.43 (active) | 0.616 | 0.0654 | 0.0219 | 0.0699

Results, repeating the preview:
Target gene | viability robust z-score, no drug | viability vs control, no drug | synergy score with BYL719 | synergy score with cetuximab | synergy score with trametinib
BRSK2 (BR serine/threonine kinase 2) | 0.314 | 0.961 | 0.0201 | -0.0283 | 0.0745
BMAL1 (basic helix-loop-helix ARNT like 1) | -0.832 | 0.855 | -0.00818 | -0.052 | 0.0121
PIM2 (Pim-2 proto-oncogene, serine/threonine kinase) | 0.736 | 1 | -0.0486 | 0 | -0.0154
UCK2 (uridine-cytidine kinase 2) | 0.736 | 1 | -0.0337 | 0 | -0.0273
KRAS (KRas proto-oncogene, GTPase) | -3.43 (active) | 0.616 | 0.0654 | 0.0219 | 0.0699
KMT2B (lysine methyltransferase 2B) | 0.55 | 0.983 | -0.108 | -0.0172 | -0.0193
RPS6KA2 (ribosomal protein S6 kinase A2) | -0.621 | 0.875 | -0.0678 | -0.0216 | -0.00406
MAPKAPK3 (MAPK activated protein kinase 3) | -0.0703 | 0.926 | 0.0166 | 0.0497 | -0.0103
MAP4K3 (mitogen-activated protein kinase kinase kinase kinase 3) | 0.682 | 0.995 | -0.0199 | 0.0669 | 0.0256
OBSCN | 0.0394 | 0.936 | -0.15 | -0.0643 | -0.113
MELK (maternal embryonic leucine zipper kinase) | 0.736 | 1 | -0.0919 | 0.0124 | -0.0857
PEAK1 (pseudopodium enriched atypical kinase 1) | 0.736 | 1 | 0.0379 | 0.0306 | 0.136
PTK2B (protein tyrosine kinase 2 beta) | 0.736 | 1 | -0.0161 | 0.0759 | 0.087
RPS6KB1 (ribosomal protein S6 kinase B1) | 0.396 | 0.969 | 0.0553 | 0.0598 | 0.0692
TEC (tec protein tyrosine kinase) | 0.399 | 0.969 | -0.12 | -0.0311 | -0.00452
TWF2 (twinfilin actin binding protein 2) | 0.736 | 1 | -0.0143 | 0.0466 | -0.152
IKBKG | -0.433 | 0.892 | -0.00764 | -0.00657 | -0.00886
PKLR (pyruvate kinase L/R) | 0.736 | 1 | -0.0919 | 0 | 0.00436
POMK (protein O-mannose kinase) | 0.271 | 0.957 | 0.0259 | -0.00718 | 0.017
SGK2 (serum/glucocorticoid regulated kinase 2) | 0.736 | 1 | 0.0545 | 0.00757 | 0.0742
IPMK (inositol polyphosphate multikinase) | 0.736 | 1 | -0.0443 | 0.0471 | 0.0111
CEP290 (centrosomal protein 290) | 0.736 | 1 | -0.0919 | 0 | 0.00773
SPHK2 (sphingosine kinase 2) | 0.736 | 1 | -0.0128 | 0 | -0.0388
CREBBP (CREB binding lysine acetyltransferase) | -0.0881 | 0.924 | -0.0892 | -0.0639 | -0.0156
ROR2 (ROR family WNT receptor 2) | 0.736 | 1 | -0.0761 | 0.0136 | 0.0293
PASK (PAS domain containing serine/threonine kinase) | 0.0168 | 0.934 | -0.0403 | 0.0197 | 0.034
GK2 (glycerol kinase 2) | -0.697 | 0.868 | -0.0768 | -0.114 | -0.115
ITPKB (inositol-trisphosphate 3-kinase B) | 0.518 | 0.98 | 0.00393 | 0.0185 | -0.0581
STAG2 (STAG2 cohesin complex component) | -0.0647 | 0.926 | -0.139 | -0.0739 | -0.152
PRKG2 (protein kinase cGMP-dependent 2) | 0.736 | 1 | -0.0145 | 0 | -0.0779
BRWD1 (bromodomain and WD repeat domain containing 1) | 0.681 | 0.995 | -0.0187 | 0.0223 | -0.028
FBXW7 (F-box and WD repeat domain containing 7) | 0.226 | 0.953 | -0.135 | -0.0471 | -0.0367
EPHA5 (EPH receptor A5) | 0.736 | 1 | -0.0907 | 0.0638 | 0.0526
DCLK2 (doublecortin like kinase 2) | -0.163 | 0.917 | -0.0202 | -0.0231 | 0.0177
LRRK2 (leucine rich repeat kinase 2) | 0.736 | 1 | -0.0159 | 0 | -0.0462
STK10 (serine/threonine kinase 10) | -0.289 | 0.905 | -0.0791 | -0.0946 | -0.00851
TAF1 (TATA-box binding protein associated factor 1) | 0.648 | 0.992 | -0.0993 | -0.0081 | -0.0816
MAP3K19 (mitogen-activated protein kinase kinase kinase 19) | 0.269 | 0.957 | 0.00894 | 0.0376 | 0.0356
EPHA3 (EPH receptor A3) | 0.736 | 1 | 0.0632 | 0.166 | 0.104
EPHA4 (EPH receptor A4) | 0.736 | 1 | -0.03 | 0 | -0.00711
PAK3 (p21 (RAC1) activated kinase 3) | -0.203 | 0.913 | -0.00451 | 0.0276 | 0.0869
TAOK3 (TAO kinase 3) | -0.156 | 0.918 | 0.257 | -0.0422 | -0.0871
INSRR (insulin receptor related receptor) | 0.736 | 1 | -0.0572 | 0.00351 | 0.0911
ULK4 (unc-51 like kinase 4) | 0.233 | 0.954 | 0.0368 | 0.102 | -0.0363
CKMT1B (creatine kinase, mitochondrial 1B) | 0.0466 | 0.936 | 0.00576 | -0.0636 | 0.0611
ULK1 (unc-51 like autophagy activating kinase 1) | 0.187 | 0.949 | -0.136 | -0.0507 | 0.05
TTBK2 (tau tubulin kinase 2) | -0.145 | 0.919 | -0.0293 | -0.0813 | -0.1
PDK3 (pyruvate dehydrogenase kinase 3) | 0.736 | 1 | 0.0291 | 0.0936 | 0.0238
FYN (FYN proto-oncogene, Src family tyrosine kinase) | 0.511 | 0.979 | 0.0861 | 0.0173 | 0.045
LMTK1 (lemur tail kinase 1) | -1.69 | 0.776 | -0.105 | -0.224 | -0.252
